From article PMC9935901, “B-lymphoid tyrosine kinase-mediated FAM83A phosphorylation elevates pancreatic tumorigenesis through interacting with β-catenin” (Signal Transduction and Targeted Therapy, 2023) come the findings set out here.

The test concerns the target GFP-tagged β-catenin Arm repeats 10–12. Description: co-IP; HEK293T cells transfected for 48 h, IP and western blotting; with or without BLK, FAM83A wild type, Y138A or Y138D, saracatinib. On the technique in general: In western blotting, separated proteins are transferred to a membrane and probed.

No constants are given. Whether binding was seen depends on the method and setting. Binding seen in cells or lysates may run through a third protein. Binding calls can cover weak binding; strength is not graded here.

B1: FAM83A (construct not stated) (protein, UniProt Q86UY5 1-434)
chain: MSRSRHLGKIRKRLEDVKSQWVRPARADFSDNESARLATDALLDGGSEAYWRVLSQEGEVDFLSSVEAQYIQAQAREPPCPPDTLGGAEAGPKGLDSSSLQSGTYFPVASEGSEPALLHSWASAEKPYLKEKSSATVYFQTVKHNNIRDLVRRCITRTSQVLVILMDVFTDVEIFCDILEAANKRGVFVCVLLDQGGVKLFQEMCDKVQISDSHLKNISIRSVEGEIYCAKSGRKFAGQIREKFIISDWRFVLSGSYSFTWLCGHVHRNILSKFTGQAVELFDEEFRHLYASSKPVMGLKSPRLVAPVPPGAAPANGRLSSSSGSASDRTSSNPFSGRSAGSHPGTRSVSASSGPCSPAAPHPPPPPRFQPHQGPWGAPSPQAHLSPRPHDGPPAAVYSNLGAYRPTRLQLEQLGLVPRLTPTWRPFLQASPHF
For B1, the binding entry was “binds”.
